Results deposited as PubChem BioAssay AID504791 (Drosophila RNAi Screening Center, 2011).

Purpose: 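Genes of the fly required for silencing by miRNA, siRNA or endo-siRNA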 (primary screen)
System: Drosophila S2-derived reporter cells
Knock-down reagent: long dsRNA against Drosophila genes, about 150-250 ng dsRNA per well (siRNA assay); about 80-120 ng (miRNA assay)
Duration: about 5 days (siRNA assay); about 4 days (miRNA assay)
Challenge: copper sulfate induction of reporters: 25 µM (siRNA assay); 200 mM stated (miRNA assay), 1-2 days before reading
Measured: 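Dual luciferase assay: Renilla to firefly signal ratio in each well, scaled to the mean ratio of its plate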
Units: stable assay Renilla, run 1 in luminescence; stable assay firefly, run 1 in luminescence
Active means: 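a well was a first-pass pick when its plate-scaled ratio rose above 1.5 (siRNA assay) or 1.6 (miRNA assay), or dropped below 0.6; a gene counted only if two separate dsRNAs agreed on retest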
The deposit covers about 23,000 reagents; below is an unselected part of those with a known target gene and a result. Of all reagents, 199 (0.86%) were called active. 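Plate-scaled ratios behind the calls are not deposited; printed light signals are raw; many rows marked increased or decreased are still called inactive.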 A number with no mark means an inactive call. The numbers tell different reagents against one gene apart. The record does not give: the direction of the score.

msd1 scored stable assay Renilla, run 1 = 6307; stable assay firefly, run 1 = 4.29e5.
Silencing of Sems came out at: stable assay Renilla, run 1 = 7366; stable assay firefly, run 1 = 4.23e5.
pch2 showed stable assay Renilla, run 1 = 6702; stable assay firefly, run 1 = 4.30e5.
With knock-down of CG8192, the screen gave stable assay Renilla, run 1 = 8071; stable assay firefly, run 1 = 2.38e5.
With knock-down of CG33252, the record shows stable assay Renilla, run 1 = 4011; stable assay firefly, run 1 = 3.50e5.
After knock-down of CG32436 #1, the screen gave stable assay Renilla, run 1 = 6175; stable assay firefly, run 1 = 3.70e5.
CG32436 #2 gave stable assay Renilla, run 1 = 6814; stable assay firefly, run 1 = 4.02e5.
Silencing of CG45105 #1 resulted in: stable assay Renilla, run 1 = 5978; stable assay firefly, run 1 = 2.51e5.
Against CG45105 #2, the entry reads stable assay Renilla, run 1 = 7634; stable assay firefly, run 1 = 4.69e5.
fbp showed stable assay Renilla, run 1 = 1.13e5; stable assay firefly, run 1 = 1.92e6.

Reprinted from above for reference:
CG32436 #2 → stable assay Renilla, run 1: 6814; stable assay firefly, run 1: 4.02e5
CG45105 #1 → stable assay Renilla, run 1: 5978; stable assay firefly, run 1: 2.51e5
CG45105 #2 → stable assay Renilla, run 1: 7634; stable assay firefly, run 1: 4.69e5
fbp → stable assay Renilla, run 1: 1.13e5; stable assay firefly, run 1: 1.92e6

Continued:
Against tant, the values are stable assay Renilla, run 1 = 5952; stable assay firefly, run 1 = 3.63e5.
Depletion of Ir68a gave: stable assay Renilla, run 1 = 5575; stable assay firefly, run 1 = 3.13e5.
CG5969 scored stable assay Renilla, run 1 = 7526; stable assay firefly, run 1 = 3.89e5.
Taz #1 showed stable assay Renilla, run 1 = 6150; stable assay firefly, run 1 = 4.81e5.
Taz #2 scored stable assay Renilla, run 1 = 3747; stable assay firefly, run 1 = 3.61e5.
With knock-down of CG8545 the results were stable assay Renilla, run 1 = 6283; stable assay firefly, run 1 = 4.61e5.
For Gr10a #1, the values are stable assay Renilla, run 1 = 6000; stable assay firefly, run 1 = 6.11e5.
With knock-down of Gr10a #2, the screen gave stable assay Renilla, run 1 = 4519; stable assay firefly, run 1 = 3.59e5.
Rab19 gave stable assay Renilla, run 1 = 5387; stable assay firefly, run 1 = 4.78e5.
CG4641 (retired record) scored stable assay Renilla, run 1 = 5855; stable assay firefly, run 1 = 3.42e5.
Against Jheh3, the entry reads stable assay Renilla, run 1 = 10598; stable assay firefly, run 1 = 3.91e5.
With knock-down of CG17839 #1, the screen gave stable assay Renilla, run 1 = 8960; stable assay firefly, run 1 = 4.39e5.
Silencing of CG17839 #2 gave: miRNA reporter change reporter ratio lowered past the hit cutoff; stable assay Renilla, run 1 = 8159; stable assay firefly, run 1 = 4.24e5.
Against Pglym87 the deposit lists stable assay Renilla, run 1 = 6414; stable assay firefly, run 1 = 4.50e5.
With knock-down of Calx #1 the results were stable assay Renilla, run 1 = 4555; stable assay firefly, run 1 = 4.04e5.
Against Calx #2, the entry reads stable assay Renilla, run 1 = 3404; stable assay firefly, run 1 = 3.46e5.
Against Calx #3, the values are stable assay Renilla, run 1 = 9093; stable assay firefly, run 1 = 4.79e5.
After knock-down of Calx #4, the screen gave stable assay Renilla, run 1 = 11407; stable assay firefly, run 1 = 5.89e5.
